In publication PMC12853880:
Results are given in words; binding and its absence hold for the method and conditions named. In cells and extracts the contact can be indirect. Some binding calls cover weakened binding; strength is not graded here. Sequences can lack the tags named with a protein.

Protein sequences, listed by entry. Tags and fused reporters are not part of them.
UniProt O24456: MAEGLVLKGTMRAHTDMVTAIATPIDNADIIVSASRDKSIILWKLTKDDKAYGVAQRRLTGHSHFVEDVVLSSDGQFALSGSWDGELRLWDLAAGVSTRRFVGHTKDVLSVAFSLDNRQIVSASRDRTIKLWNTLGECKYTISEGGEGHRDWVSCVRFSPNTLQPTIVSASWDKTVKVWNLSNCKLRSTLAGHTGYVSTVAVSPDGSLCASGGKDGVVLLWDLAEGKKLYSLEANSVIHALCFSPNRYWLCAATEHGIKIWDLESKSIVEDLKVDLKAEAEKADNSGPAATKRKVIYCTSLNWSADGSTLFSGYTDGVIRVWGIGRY

B1: TSN1 fused to the C-terminal part of YFP (YFPc) (protein, UniProt Q8VZG7 1-991)
chain: MATGAENQWLKGRVKAVTSGDCLVITALSHNRAGPPPEKTITFSSLMAPKMARRGGIDEPFAWESKEFLRKLCIGKEVAFKVDYKVEAIAGREFGSVFLGNENLAKLVVKTGWAKVREPGQQNQDKVSPYIKELLQLEELAKQEGYGRWSKVPGAAEASIRNLPPSAIGDSAGFDAMGLLAANKGKPMEGIVEQVRDGSTIRVYLLPEFQFVQVFVAGVQAPSMGRRTTNGSVVETVPDEPNGDVSAESRGPLTTAQRLAASAASSVEVSSDPFATEAKYFTEHRVLSRDVRIVLEGVDKFNNLIGSVHYSDGETVKDLGLELVENGLAKFVEWSANMMEEEAKKKLKAAELQCKKDKVKMWANYVPPATNSKAIHDQNFTGKVVEVVSGDCLIVADDAVPFGSPAAERRVCLSSIRSPKMGNPRREEKPAPYAREAREFLRQRLIGKQVIVQMEYSRKVTQGDGPTTSGAADRFMDFGSVFLPSAAKADSDEVTAPPAAAIAGSQPVGVNIAELVLVRGFGNVVRHRDFEERSNHYDALLAAEARALAGKKGIHSAKESPAMHITDLTVSAAKKAKDFLPSLQRIRRIPAVVEYVLSGHRFKLYIPKITCSIAFSFSGVRCPGRGEPYSEEAISVMRRRIMQRDVEIEVETVDRTGTFLGSMWESRTNVATVLLEAGLAKMQTSFGADRIAEAHLLEQAERSAKNQKLKIWENYVEGEEVSNGNTNTVETRQKETLKVVVTEVLGGGRFYVQSAGDQKIASIQNQLASLSIKDAPIIGSFNPKRGDIVLAQFSLDNSWNRAMIVTAPRAAVQSPDEKFEVFYIDYGNQETVPYSAIRPIDPSVSAAPGLAQLCRLAYIKVPSLEDDFGPEAGEYLHTVTLGSGKEFKAVIEERDTSGGKVKGQGTGTEFVVTLIAVDDEISVNAAMLQEGIARMEKRQKWGHKGKQAALDALEKFQEEARKSRIGIWQYGDIESDDEDTGPARKPAGGRR
B2: YFPc-GPA1 (GUANINE NUCLEOTIDE-BINDING PROTEIN ALPHA-1 SUBUNIT fused to the C-terminal part of YFP) (protein, UniProt P18064 1-383)
chain: MGLLCSRSRHHTEDTDENTQAAEIERRIEQEAKAEKHIRKLLLLGAGESGKSTIFKQIKLLFQTGFDEGELKSYVPVIHANVYQTIKLLHDGTKEFAQNETDSAKYMLSSESIAIGEKLSEIGGRLDYPRLTKDIAEGIETLWKDPAIQETCARGNELQVPDCTKYLMENLKRLSDINYIPTKEDVLYARVRTTGVVEIQFSPVGENKKSGEVYRLFDVGGQRNERRKWIHLFEGVTAVIFCAAISEYDQTLFEDEQKNRMMETKELFDWVLKQPCFEKTSFMLFLNKFDIFEKKVLDVPLNVCEWFRDYQPVSSGKQEIEHAYEFVKKKFEELYYQNTAPDRVDRVFKIYRTTALDQKLVKKTFKLVDETLRRRNLLEAGLL
B3: NUDT7-YFPc (NUDIX HYDROLASE 7 fused to the C-terminal part of YFP) (enzyme, UniProt Q9SU14 1-282)
chain: MGTRAQQIPLLEGETDNYDGVTVTMVEPMDSEVFTESLRASLSHWREEGKKGIWIKLPLGLANLVEAAVSEGFRYHHAEPEYLMLVSWISETPDTIPANASHVVGAGALVINKNTKEVLVVQERSGFFKDKNVWKLPTGVINEGEDIWTGVAREVEEETGIIADFVEVLAFRQSHKAILKKKTDMFFLCVLSPRSYDITEQKSEILQAKWMPIQEYVDQPWNKKNEMFKFMANICQKKCEEEYLGFAIVPTTTSSGKESFIYCNADHAKRLKVSRDQASASL

target: YFPn-RACK1A (Arabidopsis thaliana) (UniProt O24456); assay: split reporter; ratiometric BiFC (rBiFC, 2in1 vectors) in transiently transformed N. benthamiana leaf epidermal cells; YFP to RFP ratio in nuclei and cytosol, normalised to the positive control

binding	Binder
binds	B1
no binding	B2
binds	B3
